# Some of the results follow.
# Columns and labels:
# Assay in all cases: glycan array binding signal (z-score within array); higher = stronger binding
# Conditions in all cases: glycan notation: IUPAC condensed, linker removed
# [1] = biological target: Gal(b1-3)GlcNAc(b1-6)Gal(b1-4)GlcNAc
# How it was run: (§1)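 Columns mapping to the same glycan were averaged after glycan names were converted to IUPAC-condensed notation. The data come from 3228 arrays in the Consortium for Functional Glycomics database, limited to those with an available protein sequence. Binding is reported as a within-array Z-score averaged across arrays of one protein sequence and across linkers.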
# [2] = biological target: Gal(b1-3)GlcNAc(b1-6)GalNAc
# How it was run: as §1
# [3] = biological target: Gal(b1-3)GlcNAc(b1-6)[Gal(b1-3)]GalNAc
# How it was run: as §1
# Gal(b1-3)GlcNAc6S = biological target: Gal(b1-3)GlcNAc6S
# How it was run: as §1
# [4] = biological target: Gal(b1-3)[Fuc(a1-4)]GlcNAc
# How it was run: as §1
# [5] = biological target: Gal(b1-3)[Fuc(a1-4)]GlcNAc(b1-2)Man
# How it was run: as §1
# [6] = biological target: Gal(b1-3)[Fuc(a1-4)]GlcNAc(b1-2)Man(a1-3)[Gal(b1-3)[Fuc(a1-4)]GlcNAc(b1-2)Man(a1-6)]Man(b1-4)GlcNAc(b1-4)GlcNAc
# How it was run: as §1
# [7] = biological target: Gal(b1-3)[Fuc(a1-4)]GlcNAc(b1-2)Man(a1-3)[Gal(b1-3)[Fuc(a1-4)]GlcNAc(b1-2)Man(a1-6)]Man(b1-4)GlcNAc(b1-4)[Fuc(a1-6)]GlcNAc
# How it was run: as §1
# [8] = biological target: Gal(b1-3)[Fuc(a1-4)]GlcNAc(b1-3)Gal(b1-3)[Fuc(a1-4)]GlcNAc
# How it was run: as §1
# [9] = biological target: Gal(b1-3)[Fuc(a1-4)]GlcNAc(b1-3)Gal(b1-4)GlcNAc
# How it was run: as §1
# [10] = biological target: Gal(b1-3)[Fuc(a1-4)]GlcNAc(b1-3)Gal(b1-4)[Fuc(a1-3)]GlcNAc
# How it was run: as §1
# [11] = biological target: Gal(b1-3)[Fuc(a1-4)]GlcNAc(b1-6)GalNAc
# How it was run: as §1
# [12] = biological target: Gal(b1-3)[GlcNAc(b1-6)]GalNAc
# How it was run: as §1
# [13] = biological target: Gal(b1-3)[Neu5Ac(a2-6)]GalNAc
# How it was run: as §1
# [14] = biological target: Gal(b1-3)[Neu5Ac(a2-6)]GlcNAc(b1-4)Gal(b1-4)Glc
# How it was run: as §1
# [15] = biological target: Gal(b1-3)[Neu5Ac(a2-6)]GlcNAc(b1-6)Gal(b1-4)Glc
# How it was run: as §1
# [16] = biological target: Gal(b1-3)[Neu5Ac(b2-6)]GalNAc
# How it was run: as §1
# Gal(b1-4)Gal = biological target: Gal(b1-4)Gal
# How it was run: as §1
# [17] = biological target: Gal(b1-4)GalNAc(a1-3)[Fuc(a1-2)]Gal(b1-4)GlcNAc
# How it was run: as §1
# [18] = biological target: Gal(b1-4)GalNAc(b1-3)[Fuc(a1-2)]Gal(b1-4)GlcNAc
# How it was run: as §1
# Gal(b1-4)Glc = biological target: Gal(b1-4)Glc
# How it was run: as §1
# Gal(b1-4)Glc6S = biological target: Gal(b1-4)Glc6S
# How it was run: as §1
# Gal(b1-4)GlcNAc = biological target: Gal(b1-4)GlcNAc
# How it was run: as §1
# [19] = biological target: Gal(b1-4)GlcNAc(a1-6)Gal(b1-4)GlcNAc
# How it was run: as §1
# Gal(b1-4)GlcNAc(b1-2)Man = biological target: Gal(b1-4)GlcNAc(b1-2)Man
# How it was run: as §1
# [20] = biological target: Gal(b1-4)GlcNAc(b1-2)Man(a1-3)Man(b1-4)GlcNAc(b1-4)GlcNAc
# How it was run: as §1
# [21] = biological target: Gal(b1-4)GlcNAc(b1-2)Man(a1-3)[Gal(b1-4)GlcNAc(b1-2)Man(a1-6)]Man(b1-4)GlcNAc(b1-4)GlcNAc
# How it was run: as §1
# [22] = biological target: Gal(b1-4)GlcNAc(b1-2)Man(a1-3)[Gal(b1-4)GlcNAc(b1-2)Man(a1-6)]Man(b1-4)GlcNAc(b1-4)[Fuc(a1-6)]GlcNAc
# How it was run: as §1
# [23] = biological target: Gal(b1-4)GlcNAc(b1-2)Man(a1-3)[Gal(b1-4)GlcNAc(b1-2)Man(a1-6)][Gal(b1-4)GlcNAc(b1-4)]Man(b1-4)GlcNAc(b1-4)[Fuc(a1-6)]GlcNAc
# How it was run: as §1
# [24] = biological target: Gal(b1-4)GlcNAc(b1-2)Man(a1-3)[Gal(b1-4)GlcNAc(b1-2)Man(a1-6)][GlcNAc(b1-4)]Man(b1-4)GlcNAc(b1-4)[Fuc(a1-6)]GlcNAc
# How it was run: as §1
# [25] = biological target: Gal(b1-4)GlcNAc(b1-2)Man(a1-3)[Gal(b1-4)GlcNAc(b1-2)][GlcNAc(b1-4)]Man(b1-4)GlcNAc(b1-4)GlcNAc
# How it was run: as §1
# [26] = biological target: Gal(b1-4)GlcNAc(b1-2)Man(a1-3)[GlcNAc(b1-2)Man(a1-6)]Man(b1-4)GlcNAc(b1-4)GlcNAc
# How it was run: as §1
# [27] = biological target: Gal(b1-4)GlcNAc(b1-2)Man(a1-3)[GlcNAc(b1-4)][Gal(b1-4)GlcNAc(b1-2)Man(a1-6)]Man(b1-4)GlcNAc(b1-4)GlcNAc
# How it was run: as §1
# [28] = biological target: Gal(b1-4)GlcNAc(b1-2)Man(a1-3)[Man(a1-6)]Man(b1-4)GlcNAc(b1-4)GlcNAc
# How it was run: as §1
# [29] = biological target: Gal(b1-4)GlcNAc(b1-2)Man(a1-6)Man(b1-4)GlcNAc(b1-4)GlcNAc
# How it was run: as §1
# [30] = biological target: Gal(b1-4)GlcNAc(b1-2)Man(a1-6)[GlcNAc(b1-2)Man(a1-3)]Man(b1-4)GlcNAc(b1-4)GlcNAc
# How it was run: as §1
# [31] = biological target: Gal(b1-4)GlcNAc(b1-2)Man(a1-6)[Man(a1-3)]Man(b1-4)GlcNAc(b1-4)GlcNAc
# How it was run: as §1
# [32] = biological target: Gal(b1-4)GlcNAc(b1-2)[Gal(b1-4)GlcNAc(b1-4)]Man(a1-3)[Gal(b1-4)GlcNAc(b1-2)Man(a1-6)]Man(b1-4)GlcNAc(b1-4)GlcNAc
# How it was run: as §1
# [33] = biological target: Gal(b1-4)GlcNAc(b1-2)[Gal(b1-4)GlcNAc(b1-4)]Man(a1-3)[Gal(b1-4)GlcNAc(b1-2)[Gal(b1-4)GlcNAc(b1-6)]Man(a1-6)]Man(b1-4)GlcNAc(b1-4)GlcNAc
# How it was run: as §1
# [34] = biological target: Gal(b1-4)GlcNAc(b1-2)[Gal(b1-4)GlcNAc(b1-4)]Man(a1-3)[GlcNAc(b1-4)][Gal(b1-4)GlcNAc(b1-2)Man(a1-6)]Man(b1-4)GlcNAc(b1-4)GlcNAc
# How it was run: as §1
# [35] = biological target: Gal(b1-4)GlcNAc(b1-2)[Gal(b1-4)GlcNAc(b1-4)]Man(a1-3)[GlcNAc(b1-4)][Gal(b1-4)GlcNAc(b1-2)[Gal(b1-4)GlcNAc(b1-6)]Man(a1-6)]Man(b1-4)GlcNAc(b1-4)GlcNAc
# How it was run: as §1
# [36] = biological target: Gal(b1-4)GlcNAc(b1-2)[Gal(b1-4)GlcNAc(b1-6)]Man(a1-6)[Gal(b1-4)GlcNAc(b1-2)Man(a1-3)]Man(b1-4)GlcNAc(b1-4)GlcNAc
# How it was run: as §1
# [37] = biological target: Gal(b1-4)GlcNAc(b1-2)[Gal(b1-4)GlcNAc(b1-6)]Man(a1-6)[Gal(b1-4)GlcNAc(b1-2)Man(a1-3)]Man(b1-4)GlcNAc(b1-4)[Fuc(a1-6)]GlcNAc
# How it was run: as §1
# [38] = biological target: Gal(b1-4)GlcNAc(b1-2)[Gal(b1-4)GlcNAc(b1-6)]Man(a1-6)[GlcNAc(b1-4)][Gal(b1-4)GlcNAc(b1-2)Man(a1-3)]Man(b1-4)GlcNAc(b1-4)GlcNAc
# How it was run: as §1
# [39] = biological target: Gal(b1-4)GlcNAc(b1-2)[Gal(b1-4)GlcNAc(b1-6)]Man(a1-6)[GlcNAc(b1-4)][Gal(b1-4)GlcNAc(b1-2)[Gal(b1-4)GlcNAc(b1-4)]Man(a1-3)]Man(b1-4)GlcNAc(b1-4)[Fuc(a1-6)]GlcNAc
# How it was run: as §1
# [40] = biological target: Gal(b1-4)GlcNAc(b1-3)Gal(b1-3)GalNAc
# How it was run: as §1
# [41] = biological target: Gal(b1-4)GlcNAc(b1-3)Gal(b1-3)GlcNAc
# How it was run: as §1
# [42] = biological target: Gal(b1-4)GlcNAc(b1-3)Gal(b1-4)Glc
# How it was run: as §1
# [43] = biological target: Gal(b1-4)GlcNAc(b1-3)Gal(b1-4)GlcNAc
# How it was run: as §1
# [44] = biological target: Gal(b1-4)GlcNAc(b1-3)Gal(b1-4)GlcNAc(b1-2)Man(a1-3)[Gal(b1-4)GlcNAc(b1-3)Gal(b1-4)GlcNAc(b1-2)Man(a1-6)]Man(b1-4)GlcNAc(b1-4)GlcNAc
# How it was run: as §1
# [45] = biological target: Gal(b1-4)GlcNAc(b1-3)Gal(b1-4)GlcNAc(b1-2)Man(a1-3)[Gal(b1-4)GlcNAc(b1-3)Gal(b1-4)GlcNAc(b1-2)Man(a1-6)]Man(b1-4)GlcNAc(b1-4)[Fuc(a1-6)]GlcNAc
# How it was run: as §1
# [46] = biological target: Gal(b1-4)GlcNAc(b1-3)Gal(b1-4)GlcNAc(b1-2)[Gal(b1-4)GlcNAc(b1-3)Gal(b1-4)GlcNAc(b1-6)]Man(a1-6)[Gal(b1-4)GlcNAc(b1-3)Gal(b1-4)GlcNAc(b1-2)Man(a1-3)]Man(b1-4)GlcNAc(b1-4)GlcNAc
# How it was run: as §1
# [47] = biological target: Gal(b1-4)GlcNAc(b1-3)Gal(b1-4)GlcNAc(b1-2)[Gal(b1-4)GlcNAc(b1-3)Gal(b1-4)GlcNAc(b1-6)]Man(a1-6)[Gal(b1-4)GlcNAc(b1-3)Gal(b1-4)GlcNAc(b1-2)Man(a1-3)]Man(b1-4)GlcNAc(b1-4)[Fuc(a1-6)]GlcNAc
# How it was run: as §1
binder,measurement,setting,value
KILRGVCKKIMRTFLRRISKDILTGKK [NK2 (Sus scrofa)],glycan array binding signal (z-score),[1],-0.099
same,glycan array binding signal (z-score),[2],-1.01
same,glycan array binding signal (z-score),[3],0.758
same,glycan array binding signal (z-score),Gal(b1-3)GlcNAc6S,1.65
same,glycan array binding signal (z-score),[4],-0.634
same,glycan array binding signal (z-score),[5],0.753
same,glycan array binding signal (z-score),[6],-0.904
same,glycan array binding signal (z-score),[7],-0.004
same,glycan array binding signal (z-score),[8],-0.659
same,glycan array binding signal (z-score),[9],-0.552
same,glycan array binding signal (z-score),[10],-1
same,glycan array binding signal (z-score),[11],-1.29
same,glycan array binding signal (z-score),[12],-0.304
same,glycan array binding signal (z-score),[13],0.096
same,glycan array binding signal (z-score),[14],0.022
same,glycan array binding signal (z-score),[15],-0.316
same,glycan array binding signal (z-score),[16],-0.591
same,glycan array binding signal (z-score),Gal(b1-4)Gal,-0.503
same,glycan array binding signal (z-score),[17],-0.65
same,glycan array binding signal (z-score),[18],-0.97
same,glycan array binding signal (z-score),Gal(b1-4)Glc,-0.036
same,glycan array binding signal (z-score),Gal(b1-4)Glc6S,0.258
same,glycan array binding signal (z-score),Gal(b1-4)GlcNAc,-0.442
same,glycan array binding signal (z-score),[19],-0.977
same,glycan array binding signal (z-score),Gal(b1-4)GlcNAc(b1-2)Man,-0.61
same,glycan array binding signal (z-score),[20],0.721
same,glycan array binding signal (z-score),[21],-0.109
same,glycan array binding signal (z-score),[22],0.056
same,glycan array binding signal (z-score),[23],0.368
same,glycan array binding signal (z-score),[24],-0.408
same,glycan array binding signal (z-score),[25],-0.289
same,glycan array binding signal (z-score),[26],-0.812
same,glycan array binding signal (z-score),[27],0.481
same,glycan array binding signal (z-score),[28],0.68
same,glycan array binding signal (z-score),[29],-0.229
same,glycan array binding signal (z-score),[30],-0.72
same,glycan array binding signal (z-score),[31],-0.399
same,glycan array binding signal (z-score),[32],-0.148
same,glycan array binding signal (z-score),[33],-0.454
same,glycan array binding signal (z-score),[34],-0.023
same,glycan array binding signal (z-score),[35],0.574
same,glycan array binding signal (z-score),[36],0.297
same,glycan array binding signal (z-score),[37],0.274
same,glycan array binding signal (z-score),[38],-0.694
same,glycan array binding signal (z-score),[39],0.637
same,glycan array binding signal (z-score),[40],1.43
same,glycan array binding signal (z-score),[41],-0.996
same,glycan array binding signal (z-score),[42],-0.3
same,glycan array binding signal (z-score),[43],-0.495
same,glycan array binding signal (z-score),[44],-0.133
same,glycan array binding signal (z-score),[45],1.38
same,glycan array binding signal (z-score),[46],-0.505
same,glycan array binding signal (z-score),[47],-0.522

# Retrieved one by one from the list above:
binder,measurement,setting,value
KILRGVCKKIMRTFLRRISKDILTGKK [NK2 (Sus scrofa)],glycan array binding signal (z-score),[40],1.43
same,glycan array binding signal (z-score),[20],0.721

# Source: the supplement of paper PMC8728848
